Source: US10238710B2 (CAREGEN CO., LTD., priority 2014, dated 2019)

Assay: general procedure: peptide synthesis; CTL resin
Conditions: whole synthesis; for crude yield: scale of the general procedure 700 mg resin

Substance | crude mass | crude yield
H-ACDGRTQALC-OH (cysteine pairing not given here) | 0.76 g | 84.4%
H-ACFTRTSHAC-OH (cysteine pairing not given here) | 0.77 g | 85.5%
H-ACRSAIGRPC-OH (cysteine pairing not given here) | 0.79 g | 87.8%
